Results reported in paper PMC7647112, “The SiaABC threonine phosphorylation pathway controls biofilm formation in response to carbon availability in Pseudomonas aeruginosa” (PLoS ONE, 2020).
These are yes or no findings as the source states them, for the method shown. For some assays here: Binding can be weak; no strength is given.

Assays:
[1] = target: T1, SiaC (Pseudomonas aeruginosa); test: SEC; SiaB and SiaC mixed in equal molar ratio, incubated at room temperature for 1 h, without ATP and MgCl2; Hiload 16/600 Superdex 200; peaks analysed by SDS-PAGE; both purified
T1 sequence: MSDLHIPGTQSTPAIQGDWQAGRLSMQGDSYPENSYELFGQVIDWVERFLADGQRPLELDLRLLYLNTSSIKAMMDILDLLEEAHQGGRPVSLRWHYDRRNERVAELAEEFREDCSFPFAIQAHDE

[2] = target: T2, SiaC phosphorylated at threonine 68 (SiaC^P) (Pseudomonas aeruginosa); test: SEC; SiaB and SiaC mixed in equal molar ratio, supplemented with 10 mM ATP and 20 mM MgCl2, incubated at room temperature for 1 h (SiaC becomes SiaC^P); Hiload 16/600 Superdex 200; peaks analysed by SDS-PAGE; both purified
T2 sequence (chain, phosphothreonine at 68): T1 sequence

Substance: SiaB (Pseudomonas aeruginosa) (enzyme)
- binding [1]: binds
- binding [2]: no binding
